At least one structure is not confirmed: it was looked up by name or label, or the drawing left a doubt.
Test system: purified calf intestinal alkaline phosphatase (b.IAP) from natural sources (calf intestine)
Assay: Kinetic parameters (Km, Ki for L-Phe) of purified natural calf IAP
Assay type: biochemical, calf (bovine)
Conditions: purified natural enzyme; substrate not given
Experimental: Values for Km and Kl for L-Phe were determined for the recombinant enzyme as well as for purified protein from calf intestine as described in Hummer and Millan, supra, and Wilkinson, Biochem. J. 8:324-332 (1961), incorporated herein by reference.

Q: With O=[N+]([O-])c1ccc(OP(=O)(O)O)cc1 [p-nitrophenylphosphate] as the molecule, how does the Km read?
A: Its Km is 860 ± 170 µM.

From patent US5773226A, “Recombinant calf intestinal alkaline phosphatase” (La Jolla Cancer Research Foundation, priority 1995, dated 1998)
